{"sequences": {"note": "Sequences of proteins named here, by UniProt entry; tags and fusion partners are left off.", "UniProt P09471, whole entry, looked up": "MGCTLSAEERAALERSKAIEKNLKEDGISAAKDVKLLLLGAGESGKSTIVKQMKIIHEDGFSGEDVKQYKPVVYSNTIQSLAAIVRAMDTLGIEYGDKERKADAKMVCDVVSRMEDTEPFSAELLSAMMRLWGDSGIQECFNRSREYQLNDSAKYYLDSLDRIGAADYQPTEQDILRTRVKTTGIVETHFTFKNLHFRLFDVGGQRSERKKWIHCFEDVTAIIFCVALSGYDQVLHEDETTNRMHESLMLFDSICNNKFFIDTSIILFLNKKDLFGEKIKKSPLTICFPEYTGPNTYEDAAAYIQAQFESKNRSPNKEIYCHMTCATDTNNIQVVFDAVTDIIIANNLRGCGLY"}, "source": "PubChem BioAssay AID1439", "about": "(NMMLSC, 2008)", "note": "Screen size: about 220,000 compounds; about 770 (0.35%) were called active. Inconclusive results, whose numbers are uncertain, are shown with a selection of clear calls. Cut-off read from the data, not from the text of the source: active = binding response below about 49% or above about 150%; inconclusive = no clear call, values can overlap the other calls; inactive = in between."}
{"molecular_target": "Guanine nucleotide-binding protein G(o) subunit alpha (Homo sapiens) (UniProt P09471)", "assay": "RGS7-Galphao binding modulators, primary screen, biochemical, multiplexed bead flow cytometry (AID 1439);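 note: fluorescent Galphao held in activated GDP-AlF4 state binding bead-coupled RGS7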", "settings": "at 10 µM, actives lie on both sides"}
{"smiles": "COC(=O)c1c(C)nn(-c2ccc(OC(F)(F)F)cc2)c1-c1snnc1C", "binding response (% of control)": "inconclusive: 62.1%"}
{"smiles": "Cc1c([N+](=O)[O-])c(C(=O)Sc2ccc(Br)cc2)nn1C", "binding response (% of control)": "inconclusive: 118%"}
{"smiles": "O=C(/C=C/c1cccc2ccccc12)N1CCOCC1", "binding response (% of control)": "inconclusive: 49.3%"}
{"smiles": "Cc1ccc(-n2c(-c3cnccn3)n[nH]c2=S)cc1", "binding response (% of control)": "inconclusive: 111%"}
{"smiles": "CCS(=O)(=O)c1ccc2oc(SCC(=O)Nc3ccc(OC)c(OC)c3)nc2c1", "binding response (% of control)": "inactive: 92.4%"}
{"smiles": "CCCC1=C(C(=O)OCC)C(c2sccc2C)n2ncnc2N1", "note": "(stereo unspecified)", "binding response (% of control)": "inconclusive: 133%"}
{"smiles": "c1ccc(Nc2cc(Nc3ccccc3)[nH]n2)cc1", "binding response (% of control)": "inactive: 99.2%"}
{"smiles": "Cc1ccc(S(=O)(=O)Nc2cccc3c2CCCC3)cc1", "binding response (% of control)": "inactive: 96.8%"}
{"smiles": "Cc1ccc(/C=N/OC(=O)c2c(C)noc2-c2snnc2C)cc1", "binding response (% of control)": "inconclusive: -304%"}
{"smiles": "Cc1cc(C)cc(NC(=O)NN2C(C)CCCC2C)c1", "note": "(stereo unspecified)", "binding response (% of control)": "inconclusive: 98.1%"}
{"smiles": "COC(=O)C1=C(C)Nc2[nH]c(=S)[nH]c(=O)c2C1c1ccc(O)cc1", "note": "(stereo unspecified)", "binding response (% of control)": "inconclusive: 122%"}
{"smiles": "CCCSc1nnc(NC(=O)Nc2ccccc2OC)s1", "binding response (% of control)": "inconclusive: 248%"}
{"smiles": "CCOc1ccc(C(=O)NCc2cccnc2)cc1[N+](=O)[O-]", "binding response (% of control)": "inactive: 100%"}
{"smiles": "Cc1cc(OCCCCOc2ccc(C#N)cc2)ccc1[N+](=O)[O-]", "binding response (% of control)": "inconclusive: 80.6%"}
{"smiles": "NC(=O)c1cc(NC(=O)CCCc2nc3ccccc3s2)cc(C(N)=O)c1", "binding response (% of control)": "inconclusive: 97.3%"}
{"smiles": "COc1ccc2cc(CO)c(Cl)nc2c1", "binding response (% of control)": "inconclusive: 87.9%"}
{"smiles": "COc1ccc(C(CC(=O)N2CCCCC2)NC(=O)C(F)(F)F)cc1", "note": "(stereo unspecified)", "binding response (% of control)": "inconclusive: 108%"}
{"smiles": "O=C(Cn1cnc2c(nnn2Cc2ccccc2)c1=O)NCc1ccccc1Cl", "binding response (% of control)": "inconclusive: -374%"}
{"smiles": "CNC(=O)/C(C#N)=C1/SC(Cc2ccc(F)cc2)C(=O)N1c1ccccc1", "note": "(stereo unspecified)", "binding response (% of control)": "inconclusive: 83.6%"}
{"smiles": "CC1(C)C2C/C(=N\\O)C(C)(/[N+]([O-])=C/c3cccc([N+](=O)[O-])c3)CC21", "note": "(stereo unspecified)", "binding response (% of control)": "inconclusive: 105%"}
{"smiles": "CC1CN(C(=O)/C=C/c2ccc([N+](=O)[O-])s2)CC(C)O1", "note": "(stereo unspecified)", "binding response (% of control)": "inactive: 103%"}
{"smiles": "CCN(CC)CCCNC(=S)N(Cc1cccnc1)Cc1cc2cc(C)ccc2[nH]c1=O", "binding response (% of control)": "inconclusive: 91.6%"}
{"smiles": "Cc1ccc(N2CCN(CCc3nc4cc(NS(C)(=O)=O)ccc4n3C)CC2)cc1", "binding response (% of control)": "inactive: 120%"}
{"smiles": "COC(=O)Cc1[nH]c(=O)[nH]c1C(=O)OC", "binding response (% of control)": "inconclusive: 99.3%"}
{"smiles": "N/C(Cc1cccc2ccccc12)=N\\O", "binding response (% of control)": "inconclusive: 130%"}
{"smiles": "COc1ccc2c(c1OC)C(=O)OC2n1c(O)c(N=NC(C)=O)c2ccccc21", "note": "(stereo unspecified)", "binding response (% of control)": "inconclusive: 98.3%"}
{"smiles": "CCC(=O)N(CCC(c1ccc(C)cc1)c1ccco1)Cc1ccco1", "note": "(stereo unspecified)", "binding response (% of control)": "inconclusive: 72.4%"}
{"smiles": "COc1ccc(NC(=S)N(Cc2cccnc2)Cc2ccco2)cc1", "binding response (% of control)": "inconclusive: 95.5%"}
{"smiles": "CCCOCc1ccc(O)c2ncccc12", "binding response (% of control)": "inconclusive: 80.4%"}
{"smiles": "O=S1(=O)CC2SC(=S)N(c3ccccc3)C2C1", "note": "(stereo unspecified)", "binding response (% of control)": "inconclusive: 72%"}
{"smiles": "COc1cccc(NC2=C(Cl)C(=O)OC2OC(=O)c2ccco2)c1", "note": "(stereo unspecified)", "binding response (% of control)": "inactive: 99.9%"}
{"smiles": "CC(=O)c1ccc(NC(=S)Nc2cccc3cnccc23)cc1", "binding response (% of control)": "inconclusive: 102%"}
{"smiles": "Cc1ccc(NC(=O)CN2C(=O)CNC2=O)cc1", "binding response (% of control)": "inconclusive: 111%"}
{"smiles": "Cc1cc(C(F)(F)F)cc(NNC(=O)NC(=O)c2c(F)cccc2Cl)n1", "binding response (% of control)": "inconclusive: 109%"}
{"smiles": "COc1ccc(C(C)=O)cc1CSc1nnc(SCc2cc(C(C)=O)ccc2OC)s1", "binding response (% of control)": "inconclusive: 156%"}
{"smiles": "Cc1ccc(C(=O)NCC(=O)OCC(=O)Nc2cccc(S(=O)(=O)N3CCCC3)c2)cc1C", "binding response (% of control)": "inconclusive: 107%"}
{"smiles": "CNC(=O)CC1C(=O)N(C)C(=S)N1NC(=O)c1ccccc1", "note": "(stereo unspecified)", "binding response (% of control)": "inconclusive: 145%"}
{"smiles": "Brc1cnc2nc(SC/C=C/c3ccccc3)[nH]c2c1", "binding response (% of control)": "inconclusive: 87.3%"}
{"smiles": "N#Cc1c(-c2ccc(F)cc2)ccnc1N1CCOCC1", "binding response (% of control)": "inactive: 103%"}
{"smiles": "CCCN1CN(Cc2ccco2)c2nc3ccccc3n2C1", "binding response (% of control)": "inactive: 97.5%"}
{"smiles": "Cc1cc(=O)[nH]c(N/N=C/c2c(C)nn(-c3ccccc3Cl)c2Cl)n1", "binding response (% of control)": "inconclusive: 112%"}
{"smiles": "COc1ccc2[nH]c(C(=O)N(Cc3ccccn3)Cc3ccccn3)cc2c1", "binding response (% of control)": "inconclusive: 87.3%"}
{"smiles": "CCOC(=O)N1CCC(NC(=O)C(CC(C)C)NC(=O)C2CCC(C)CC2)CC1", "note": "(stereo unspecified)", "binding response (% of control)": "inactive: 104%"}
{"smiles": "COc1ccc(C(=O)CN2CCN(c3cc(C)nc4ccccc34)CC2)cc1", "binding response (% of control)": "inconclusive: 103%"}
{"smiles": "O=C(COC(=O)c1cccnc1Cl)Nc1nc(-c2ccccc2)cs1", "binding response (% of control)": "inactive: 100%"}
{"smiles": "Cc1ccc(NC(=S)N(CCC(C)C)C(C)c2ccncc2)c(Cl)c1", "note": "(stereo unspecified)", "binding response (% of control)": "inconclusive: 108%"}
